Article PMC10819771 (Pharmaceuticals, 2023)
Where “and” joins values, the source holds several entries; their conditions need not be identical. Equal values may be shown once.

Columns and labels:
Format in all cases: binding
Settings in all cases: cooperative if > 4
BCL-2 = assay: Native electrospray mass spectrometry, BCL-2
Experimental: (§1) These parameters ensured a good signal intensity without disrupting noncovalent complexes, which was verified using d[G4T4G4]2 as a control. Oligonucleotides were purchased lyophilized, and RP-cartridge purified from Eurogentec (Kanaka Eurogentec, Seraing, Belgium), then buffer exchanged with ammonium acetate (5 M; Sigma-Aldrich, Saint-Quentin-Fallavier, France) using Amicon Ultra (3 K cut-off; Merck Millipore, Cork, Ireland). Sample solutions were prepared by diluting the proper volume of oligonucleotide stock solutions to reach 10 µM of DNA and 20 µM of ligand, in 100 mM ammonium acetate. The solutions were incubated for 16 h at 4 °C before analysis. Kd were calculated as already described.

[1] = tested on: human telomeric sequence 24TTG; assay: Native electrospray mass spectrometry, 24TTG
Experimental: as §1

c-MYC = assay: Native electrospray mass spectrometry, c-MYC
Experimental: as §1

ds26 = assay: Native electrospray mass spectrometry, duplex control ds26
Experimental: as §1

Row | SMILES | Kd1/Kd2 BCL-2 (BCL-2) | Kd1/Kd2 24TTG [1] | Kd1/Kd2 c-MYC (c-MYC) | Kd1/Kd2 ds26 (ds26)
1 | CN1CCN(CCCCNCc2ccc(-c3cc(-c4ccc(CNCCCCN5CCN(C)CC5)cc4)c4cc(-c5ccccc5)ccc4n3)cc2)CC1 [Compound 13d, 2,4-bis{4-[(4-(4-methylpiperazin-1-yl)butyl)aminomethyl]phenyl}-6-phenylquinoline] | 2.6 | 0.4 | 0.1 | 0.2
2 | CN(C)CCCNCc1ccc(-c2cc(-c3ccc(CNCCCN(C)C)cc3)c3cc(-c4ccccc4)ccc3n2)cc1 [Compound 13a, 2,4-bis{4-[(3-dimethylaminopropyl)aminomethyl]phenyl}-6-phenylquinoline] | 2.1 | 0.5 | 0.1 | 0.2
3 | CN(C)CCCNCc1ccc(-c2nc(-c3ccc(CNCCCN(C)C)cc3)c3cc(-c4ccccc4)ccc3n2)cc1 [Compound 12b, 2,4-bis{4-[(3-dimethylaminopropyl)aminomethyl]phenyl}-6-phenylquinazoline] | 2.0 | > 4 and 6.3 | 0.1 | 0.1
4 | CN1CCN(CCCCNCc2ccc(-c3nc(-c4ccc(CNCCCCN5CCN(C)CC5)cc4)c4cc(-c5ccccc5)ccc4n3)cc2)CC1 [Compound 12e, 2,4-bis{4-[(4-(4-methylpiperazin-1-yl)butyl)aminomethyl]phenyl}-6-phenylquinazoline] | 2.8 | > 4 and 7.2 | 0.1 | 0.1
